These are yes or no findings as the source states them, for the method shown. Some entries that bind do so weakly or less than the wild type.
Molecular target: human neuronal α7 nAChR (human) (UniProt P36544)
Experiment: competition with α-bungarotoxin

The chains behind the UniProt entries cited, without tags or fusion partners. Residues count along the entry.
UniProt P36544, residues 23-502: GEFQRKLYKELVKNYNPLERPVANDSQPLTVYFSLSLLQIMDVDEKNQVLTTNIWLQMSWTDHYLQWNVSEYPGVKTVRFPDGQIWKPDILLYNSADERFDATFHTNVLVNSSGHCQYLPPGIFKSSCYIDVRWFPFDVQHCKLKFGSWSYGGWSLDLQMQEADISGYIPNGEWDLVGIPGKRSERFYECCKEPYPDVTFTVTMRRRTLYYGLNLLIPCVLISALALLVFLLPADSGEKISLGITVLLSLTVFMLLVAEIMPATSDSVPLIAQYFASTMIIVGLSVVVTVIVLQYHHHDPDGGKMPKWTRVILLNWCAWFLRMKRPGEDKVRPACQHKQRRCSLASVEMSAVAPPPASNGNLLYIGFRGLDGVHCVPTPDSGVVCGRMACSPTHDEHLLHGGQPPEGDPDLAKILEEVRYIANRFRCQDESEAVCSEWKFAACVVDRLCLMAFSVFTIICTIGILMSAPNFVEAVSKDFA
UniProt P60615, residues 22-95: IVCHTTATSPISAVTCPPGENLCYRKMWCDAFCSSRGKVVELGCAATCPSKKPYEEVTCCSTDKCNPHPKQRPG

Substance: α-bungarotoxin (from UniProt P60615 22-95) (ligand)
- binding: binds
